Measured values reported in PMC6831784.
No constants are given. Whether binding was seen depends on the method and setting. Binding seen in cells or lysates may run through a third protein. Some results given as binding are weak or reduced against the parent protein; the word gives no strength.

The chains behind the UniProt entries cited, without tags or fusion partners.
UniProt Q9UBN7: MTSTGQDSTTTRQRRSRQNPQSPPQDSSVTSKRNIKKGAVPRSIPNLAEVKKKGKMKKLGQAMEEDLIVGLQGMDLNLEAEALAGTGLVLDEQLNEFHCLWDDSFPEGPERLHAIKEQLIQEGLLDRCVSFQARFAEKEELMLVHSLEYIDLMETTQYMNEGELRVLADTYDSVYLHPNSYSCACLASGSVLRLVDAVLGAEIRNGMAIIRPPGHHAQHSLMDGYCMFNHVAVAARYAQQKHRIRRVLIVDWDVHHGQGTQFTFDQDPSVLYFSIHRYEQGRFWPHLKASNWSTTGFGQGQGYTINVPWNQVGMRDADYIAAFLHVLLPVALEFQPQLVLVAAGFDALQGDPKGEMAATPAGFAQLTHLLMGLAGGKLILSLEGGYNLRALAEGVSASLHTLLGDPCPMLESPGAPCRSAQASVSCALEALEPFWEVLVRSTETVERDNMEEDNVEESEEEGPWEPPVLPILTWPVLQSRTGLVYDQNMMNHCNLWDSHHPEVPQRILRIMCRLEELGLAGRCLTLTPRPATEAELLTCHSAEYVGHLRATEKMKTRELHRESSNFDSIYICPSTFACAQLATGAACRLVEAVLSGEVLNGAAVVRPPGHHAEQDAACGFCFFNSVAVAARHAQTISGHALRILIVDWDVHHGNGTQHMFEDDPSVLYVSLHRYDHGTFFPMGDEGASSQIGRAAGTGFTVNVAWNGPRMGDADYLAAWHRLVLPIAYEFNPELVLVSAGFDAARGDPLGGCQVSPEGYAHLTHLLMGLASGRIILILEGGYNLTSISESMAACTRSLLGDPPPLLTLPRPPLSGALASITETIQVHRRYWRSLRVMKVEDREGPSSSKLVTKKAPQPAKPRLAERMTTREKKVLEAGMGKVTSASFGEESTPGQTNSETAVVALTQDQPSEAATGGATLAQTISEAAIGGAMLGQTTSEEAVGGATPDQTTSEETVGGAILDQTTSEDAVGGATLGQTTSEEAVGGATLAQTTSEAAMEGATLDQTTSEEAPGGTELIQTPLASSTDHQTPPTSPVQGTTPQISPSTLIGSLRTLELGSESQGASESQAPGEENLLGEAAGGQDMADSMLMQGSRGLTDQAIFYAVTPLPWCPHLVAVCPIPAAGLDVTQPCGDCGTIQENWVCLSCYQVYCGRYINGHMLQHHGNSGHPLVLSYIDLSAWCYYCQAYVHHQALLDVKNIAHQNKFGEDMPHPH

How the values were obtained:
[1] = target: Nef-G2A-EGFP (non-myristoylated HIV-1 Lai Nef mutant, C-terminal EGFP) (HIV-1 (Lai)) (UniProt P03406); assay: co-IP; HEK-293T cells co-transfected; cleared lysates incubated with anti-EGFP antibody on protein G magnetic beads and 1 mg/mL RNAse A overnight at 4°C; blots with anti-HDAC6, anti-HA, anti-Nef and anti-EGFP
[2] = target: wt-Nef-EGFP (full-length wild-type HIV-1 Lai Nef, C-terminal EGFP) (HIV-1 (Lai)) (UniProt P03406); assay: as above
[3] = target: HA-wt-HDAC6 (histone deacetylase 6, N-terminal HA epitope) (UniProt Q9UBN7); assay: co-IP; HEK-293T cells co-transfected; cleared lysates incubated with anti-HA antibody on protein G magnetic beads and 1 mg/mL RNAse A overnight at 4°C; blots with anti-HDAC6, anti-Nef and anti-HA

Substance	binding [1]	binding [2]	binding [3]
HA-wt-HDAC6 (histone deacetylase 6, N-terminal HA epitope) (from UniProt Q9UBN7 1-1215) (enzyme)	binds	binds	–
wt-Nef-EGFP (full-length wild-type HIV-1 Lai Nef, C-terminal EGFP) (from UniProt P03406 1-206)	–	–	binds
